These are yes or no findings as the source states them, for the method shown. Some entries that bind do so weakly or less than the wild type. Where a sequence is shown, tags or fusion partners need not be part of it.
Target: ovalbumin (UniProt P01012)
Experiment: ELISA, ovalbumin coated on plate, dilutions of antibody preparation, absorbance at 414 nm

Amino acid sequences for entries named in this document (tags omitted). Residues count along the entry.
UniProt P01012, residues 2-386: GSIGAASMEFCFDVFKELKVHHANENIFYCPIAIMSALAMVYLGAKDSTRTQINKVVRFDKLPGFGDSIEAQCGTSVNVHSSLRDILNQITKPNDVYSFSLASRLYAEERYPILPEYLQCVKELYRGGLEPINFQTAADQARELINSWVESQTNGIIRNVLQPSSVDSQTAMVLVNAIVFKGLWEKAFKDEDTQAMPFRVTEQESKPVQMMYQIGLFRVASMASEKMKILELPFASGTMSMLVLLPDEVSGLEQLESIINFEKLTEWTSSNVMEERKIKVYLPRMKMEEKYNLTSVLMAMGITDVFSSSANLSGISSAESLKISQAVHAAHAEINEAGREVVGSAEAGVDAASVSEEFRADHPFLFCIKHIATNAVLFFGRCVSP

binding: binds
B1: recombinant ovalbumin fusion antibody with fusion partner comprising … (SEQ ID 2) (scFv)
scFv: DYKDIVMTQSPASLAVSLGQRATISCRASQSVSTSSYSYMHWYQQKPGQPPKLLIKYASNLESGVPARFSGSGSGTDFTLNIHPVVEEDTATYYCQHSWEIPYTFGGGTKLEIKRGGGGSGGGGSEVKLMESGGGLVKPGGSLKLSCAASGFTFSSYAMSWVRQTPEKRLEWVATIRSGGSYTYYPDSVKGRFTISRDNAKNTLYLQMSSLRSEDTAMYYCARHRMITTAGDAMDYWGQGTSVTVSAASGAGGSGGAPASNRCSQGSCWNLQHHHHHH

— patent publication US20110177615A1
